Tests used:
[1] = Dual activation: light-triggered release of doxorubicin from TCO-Dox in PBS (HPLC-MS); details: 1a 8 μM + TCO-Dox 3c 5.5 μM, PBS 0.1% DMSO, 37° C., after 24 hours
[2] = Light-triggered decaging of photocaged dihydrotetrazine to tetrazine (HPLC); type: physicochemical; details: 37° C.

COc1cccc2c1C(=O)c1c(O)c3c(c(O)c1C2=O)C[C@@](O)(C(=O)CO)C[C@@H]3O[C@H]1C[C@H](NC(=O)OC2/C=C/CCCCC2)[C@H](O)[C@H](C)O1 (stereo partly shown) [TCO-Dox 3c]
TCO-Dox 3c converted to doxorubicin ([1]; LED 405 nm 18 W 2 minutes): 91% | consumption of TCO-Dox ([1]; LED 405 nm 2 minutes): fully consumed

1c: five-amino-acid peptide containing photocaged dihydrotetrazine, obtained by SPPS from 1b; peptide sequence LKKGA (photocaged dihydrotetrazine modification)
tetrazine-peptide 2c formed, yield ([2]; 1c 10 μM, LED irradiation 2 minutes, PBS): 96%

C#CCCC1=NNC(c2ccccc2)=NN1C(=O)OC(C)c1ccccc1[N+](=O)[O-] (stereo not shown) [1a, 1-(2-nitrophenyl)ethyl 6-(but-3-yn-1-yl)-3-phenyl-1,2,4,5-tetrazine-1(4H)-carboxylate]
conversion (decaging of photocaged dihydrotetrazine to tetrazine 2a) ([2]; visible blue light 405 nm LED (18 W), 2 minutes, PBS containing 0.1% DMSO, HPLC): 94%
